According to the supplement of paper PMC4604168 (melanoma cell lines):
Some of the results follow. Repeats are few or missing, and single values can be far off.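 The apoptosis fraction was the count of cleaved-PARP antibody-stained nuclei relative to all DNA-stained nuclei, imaged in 1,536-well plates. Screening doses were set so most cells survived, and baseline and induced cleaved-PARP levels vary greatly across cell lines.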

Experiments:
Test in all cases: cleaved PARP positive nuclei fraction relative to DMSO control; melanoma cells; higher = more apoptosis
Details in all cases: library dose: low library concentration; 72 h
WM115 = test system: WM115
WM1716 = test system: WM1716
WM1745 = test system: WM1745
WM3526 = test system: WM3526
WM3619 = test system: WM3619
WM451Lu = test system: WM451Lu

Structure (SMILES)	cleaved PARP positive nuclei fraction (WM115) [%]	cleaved PARP positive nuclei fraction (WM1716) [%]	cleaved PARP positive nuclei fraction (WM1745) [%]	cleaved PARP positive nuclei fraction (WM3526) [%]	cleaved PARP positive nuclei fraction (WM3619) [%]	cleaved PARP positive nuclei fraction (WM451Lu) [%]
C[C@]12O[C@H](C[C@]1(O)CO)n1c3ccccc3c3c4c(c5c6ccccc6n2c5c31)CNC4=O [Lestaurtinib] + C=CCNC1=C2C[C@@H](C)C[C@H](OC)[C@H](O)[C@@H](C)/C=C(\C)[C@H](OC(N)=O)[C@@H](OC)/C=C\C=C(/C)C(=O)NC(=CC1=O)C2=O [Tanespimycin] (first compound 0.004 µM, partner dose 0.002 µM)	19.9	115	99.2	254	78.3	86
N.N.[Cl][Pt][Cl] [cisplatin] + O=C(O)c1ccc2c(c1)nc(Nc1cccc(Cl)c1)c1ccncc12 [CX4945] (first compound 1.6 µM, partner dose 0.4 µM)	202	416	94.6	23.8	110	51.4
Cn1cc(C2=C(c3cn(C4CCN(Cc5ccccn5)CC4)c4ccccc34)C(=O)NC2=O)c2ccccc21 [Enzastaurin] + NC(=O)Nc1cc(-c2cccc(F)c2)sc1C(=O)N[C@H]1CCCNC1 [AZD7762] (first compound 0.8 µM, partner dose 0.02 µM)	141	139	86	48.5	115	58.8
COc1ccc(C2=N[C@@H](c3ccc(Cl)cc3)[C@@H](c3ccc(Cl)cc3)N2C(=O)N2CCNC(=O)C2)c(OC(C)C)c1 [Nutlin-3] + Cc1cc(SCc2sc(-c3ccc(C(F)(F)F)c(F)c3)nc2C)ccc1OCC(=O)O [GW0742] (first compound 0.1 µM, partner dose 2 µM)	35.7	61.3	93	76.6	79.3	285
Cn1c(=O)n(-c2ccc(C(C)(C)C#N)cc2)c2c3cc(-c4cnc5ccccc5c4)ccc3ncc21 + Cc1cc(SCc2sc(-c3ccc(C(F)(F)F)c(F)c3)nc2C)ccc1OCC(=O)O [GW0742] (first compound 0.004 µM, partner dose 2 µM)	110	97.4	83.8	69	85	339
N#Cc1c(O)c2c(-c3ccc(-c4ccccc4O)cc3)csc2[nH]c1=O + C/C(O)=C(\C#N)C(=O)Nc1cc(Br)ccc1Br [LFM-A13] (first compound 2 µM, partner dose 2 µM)	64.6	86.2	103	166	97.9	94.1
Cn1cc(C2=C(c3cn(C4CCN(Cc5ccccn5)CC4)c4ccccc34)C(=O)NC2=O)c2ccccc21 [Enzastaurin] + CCc1ccc(CCOc2ccc(CC3SC(=O)NC3=O)cc2)nc1 [pioglitazone] (first compound 0.8 µM, partner dose 2 µM)	57.5	22.7	101	66	107	62.6
N.N.[Cl][Pt][Cl] [cisplatin] + OCCn1cc(-c2cnc3nnn(Cc4ccc5ncccc5c4)c3n2)cn1 [PF04217903] (first compound 1.6 µM, partner dose 1 µM)	67.6	165	104	61.9	103	210
O=C(Nc1cc(C(F)(F)F)cc(C(F)(F)F)c1)c1cc(Cl)ccc1O + O=C(Oc1ccc([N+](=O)[O-])cc1)N1CCC(C(O)(c2ccc3c(c2)OCO3)c2ccc3c(c2)OCO3)CC1 [JZL184] (first compound 0.016 µM, partner dose 1 µM)	132	90.7	89.8	92.2	94.2	77.3
C[C@]12O[C@H](C[C@]1(O)CO)n1c3ccccc3c3c4c(c5c6ccccc6n2c5c31)CNC4=O [Lestaurtinib] + COc1ccc(Cl)c(Nc2nc3ccccc3nc2NS(=O)(=O)c2cccc(NC(=O)C(C)(C)N)c2)c1 [XL147] (first compound 0.004 µM, partner dose 0.8 µM)	147	67.5	92.7	62.8	120	56.4
Nc1nc(F)nc2c1ncn2[C@@H]1O[C@H](CO)[C@@H](O)[C@@H]1O [fludarabine] + C/C(O)=C(\C#N)C(=O)Nc1cc(Br)ccc1Br [LFM-A13] (first compound 0.2 µM, partner dose 2 µM)	277	125	81.4	1020	72.6	516
O=C(Nc1ccccc1)c1cc([N+](=O)[O-])ccc1Cl + O=C(Oc1ccc([N+](=O)[O-])cc1)N1CCC(C(O)(c2ccc3c(c2)OCO3)c2ccc3c(c2)OCO3)CC1 [JZL184] (first compound 2 µM, partner dose 1 µM)	273	121	88	66.2	78	131
C[C@]12O[C@H](C[C@]1(O)CO)n1c3ccccc3c3c4c(c5c6ccccc6n2c5c31)CNC4=O [Lestaurtinib] + CC1(C)NC(=O)N(c2ccc([N+](=O)[O-])c(C(F)(F)F)c2)C1=O [nilutamide] (first compound 0.004 µM, partner dose 1 µM)	123	55.7	89.3	68.7	83.2	55.9
Cc1cc(Nc2cc(N3CCN(C)CC3)nc(Sc3ccc(NC(=O)C4CC4)cc3)n2)n[nH]1 [Tozasertib] + Cc1cc(SCc2sc(-c3ccc(C(F)(F)F)c(F)c3)nc2C)ccc1OCC(=O)O [GW0742] (first compound 0.006 µM, partner dose 2 µM)	158	74	232	51.9	118	59.4
CC1(C)NC(=O)N(c2ccc([N+](=O)[O-])c(C(F)(F)F)c2)C1=O [nilutamide] + Cc1cc(SCc2sc(-c3ccc(C(F)(F)F)c(F)c3)nc2C)ccc1OCC(=O)O [GW0742] (first compound 1 µM, partner dose 2 µM)	93.7	92.8	108	76.8	82.8	37
C/C(O)=C(\C#N)C(=O)Nc1cc(Br)ccc1Br + O=C1NC(=O)/C(=C/c2ccc(-c3ccc(F)cc3O)o2)S1 [AS252424] (first compound 2 µM, partner dose 1 µM)	41.8	63.5	93.1	67.1	98.8	66.8
O=C(O)C(=O)Nc1sc2c(c1C(=O)O)CCNC2 + O=C(Oc1ccc([N+](=O)[O-])cc1)N1CCC(C(O)(c2ccc3c(c2)OCO3)c2ccc3c(c2)OCO3)CC1 [JZL184] (first compound 1.66667 µM, partner dose 1 µM)	51.4	118	133	36.2	74.4	32.4
N.N.[Cl][Pt][Cl] [cisplatin] + CCCCCCCCCCCC1=C(O)C(=O)C=C(O)C1=O [Embelin] (first compound 1.6 µM, partner dose 1.2 µM)	69.5	45.1	79.1	51.4	86.8	60.2
COC(=O)c1sccc1S(=O)(=O)Nc1ccc(Nc2ccccc2)cc1OC + Cc1cc(SCc2sc(-c3ccc(C(F)(F)F)c(F)c3)nc2C)ccc1OCC(=O)O [GW0742] (first compound 1 µM, partner dose 2 µM)	77.2	110	110	44.5	545	86.4
C[C@]12O[C@H](C[C@]1(O)CO)n1c3ccccc3c3c4c(c5c6ccccc6n2c5c31)CNC4=O [Lestaurtinib] + Cc1cc(Nc2cc(N3CCN(C)CC3)nc(/C=C/c3ccccc3)n2)n[nH]1 [ENMD2076] (first compound 0.004 µM, partner dose 0.04 µM)	181	126	93.6	48.4	90	162
C[C@]12O[C@H](C[C@]1(O)CO)n1c3ccccc3c3c4c(c5c6ccccc6n2c5c31)CNC4=O [Lestaurtinib] + COc1cc2ncnc(Nc3ccc(Oc4ccccc4)cc3)c2cc1OC [SrcI1] (first compound 0.004 µM, partner dose 2 µM)	95	45.1	96.4	77.9	89.5	105
C[As](C)SC[C@H](NC(=O)CC[C@H](N)C(=O)O)C(=O)NCC(=O)O [Darinaparsin] + COc1ccc(COc2ccc(Cc3cnc(N)nc3N)cc2OC)cc1 [GW2580] (first compound 0.4 µM, partner dose 1 µM)	132	67.5	119	186	82.4	56.6
Cn1cc(C2=C(c3cn(C4CCN(Cc5ccccn5)CC4)c4ccccc34)C(=O)NC2=O)c2ccccc21 [Enzastaurin] + Cn1c(=O)n(-c2ccc(C(C)(C)C#N)cc2)c2c3cc(-c4cnc5ccccc5c4)ccc3ncc21 [NVP-BEZ235] (first compound 0.8 µM, partner dose 0.004 µM)	32.7	53.8	87.4	34.4	90	113
C[C@]12O[C@H](C[C@]1(O)CO)n1c3ccccc3c3c4c(c5c6ccccc6n2c5c31)CNC4=O [Lestaurtinib] + C[C@@H](Oc1cc(-c2cnn(C3CCNCC3)c2)cnc1N)c1c(Cl)ccc(F)c1Cl [Crizotinib] (first compound 0.004 µM, partner dose 0.2 µM)	171	104	183	86.7	77.3	149
O=C(O)c1ccc2c(c1)nc(Nc1cccc(Cl)c1)c1ccncc12 + O=C(Oc1ccc([N+](=O)[O-])cc1)N1CCC(C(O)(c2ccc3c(c2)OCO3)c2ccc3c(c2)OCO3)CC1 [JZL184] (first compound 0.4 µM, partner dose 1 µM)	137	54.1	82.8	190	87.9	69.5
